From PMC11063907 come the findings set out here.

By UniProt entry, the sequences of proteins in these tests, tags left out.
UniProt F8VPN4: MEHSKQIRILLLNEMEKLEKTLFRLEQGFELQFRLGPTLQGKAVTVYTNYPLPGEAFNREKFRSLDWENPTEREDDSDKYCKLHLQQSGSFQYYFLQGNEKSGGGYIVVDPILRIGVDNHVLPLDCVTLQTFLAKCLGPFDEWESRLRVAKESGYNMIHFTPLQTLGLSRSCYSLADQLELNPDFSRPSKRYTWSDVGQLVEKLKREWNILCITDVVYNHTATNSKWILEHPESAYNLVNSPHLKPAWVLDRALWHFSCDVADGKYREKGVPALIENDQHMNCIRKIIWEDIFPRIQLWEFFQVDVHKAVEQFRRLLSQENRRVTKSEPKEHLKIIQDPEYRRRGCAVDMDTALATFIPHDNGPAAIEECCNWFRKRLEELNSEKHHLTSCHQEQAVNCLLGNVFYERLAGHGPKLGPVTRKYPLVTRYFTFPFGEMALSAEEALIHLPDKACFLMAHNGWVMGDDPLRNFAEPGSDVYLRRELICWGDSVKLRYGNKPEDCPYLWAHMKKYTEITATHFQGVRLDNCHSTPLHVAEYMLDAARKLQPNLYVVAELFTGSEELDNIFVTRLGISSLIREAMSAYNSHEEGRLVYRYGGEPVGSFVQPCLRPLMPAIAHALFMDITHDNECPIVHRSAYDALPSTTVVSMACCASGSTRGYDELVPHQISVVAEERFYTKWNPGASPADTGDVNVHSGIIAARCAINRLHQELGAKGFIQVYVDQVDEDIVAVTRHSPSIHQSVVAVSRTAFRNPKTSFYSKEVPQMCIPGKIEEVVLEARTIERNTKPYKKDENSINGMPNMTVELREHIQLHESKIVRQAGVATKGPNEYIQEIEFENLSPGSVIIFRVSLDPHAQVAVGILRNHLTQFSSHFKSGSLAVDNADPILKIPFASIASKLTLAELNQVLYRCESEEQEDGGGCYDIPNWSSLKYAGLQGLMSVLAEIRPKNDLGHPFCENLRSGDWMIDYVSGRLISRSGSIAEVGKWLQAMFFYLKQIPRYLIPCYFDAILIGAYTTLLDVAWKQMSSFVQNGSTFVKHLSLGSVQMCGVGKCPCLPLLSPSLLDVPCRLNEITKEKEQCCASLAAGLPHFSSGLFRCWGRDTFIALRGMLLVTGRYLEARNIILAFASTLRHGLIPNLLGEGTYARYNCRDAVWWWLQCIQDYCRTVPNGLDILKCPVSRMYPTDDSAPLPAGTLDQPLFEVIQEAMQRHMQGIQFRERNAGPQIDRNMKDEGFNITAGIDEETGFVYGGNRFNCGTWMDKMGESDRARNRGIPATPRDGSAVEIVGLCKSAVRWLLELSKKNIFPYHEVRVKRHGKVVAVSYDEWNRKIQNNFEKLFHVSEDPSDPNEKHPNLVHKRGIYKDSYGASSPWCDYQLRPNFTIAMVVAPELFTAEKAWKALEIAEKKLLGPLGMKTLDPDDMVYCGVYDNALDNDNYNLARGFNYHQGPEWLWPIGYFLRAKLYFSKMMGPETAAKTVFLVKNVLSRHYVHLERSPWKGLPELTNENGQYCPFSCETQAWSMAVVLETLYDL

These are yes or no findings as the source states them, for the method shown. In cells and extracts the contact can be indirect. Here binding means that the protein was enriched with, or labelled near, the bait; the list need not be complete. For some of these results: A no says only that the protein was not detected with the bait. Where a sequence is shown, tags or fusion partners need not be part of it.

The target in experiment [1] is T1, malin-myc (mouse malin with a C-terminal 2x c-myc tag, expressed from the endogenous gene) (mouse) (UniProt Q8BR37).
T1 sequence: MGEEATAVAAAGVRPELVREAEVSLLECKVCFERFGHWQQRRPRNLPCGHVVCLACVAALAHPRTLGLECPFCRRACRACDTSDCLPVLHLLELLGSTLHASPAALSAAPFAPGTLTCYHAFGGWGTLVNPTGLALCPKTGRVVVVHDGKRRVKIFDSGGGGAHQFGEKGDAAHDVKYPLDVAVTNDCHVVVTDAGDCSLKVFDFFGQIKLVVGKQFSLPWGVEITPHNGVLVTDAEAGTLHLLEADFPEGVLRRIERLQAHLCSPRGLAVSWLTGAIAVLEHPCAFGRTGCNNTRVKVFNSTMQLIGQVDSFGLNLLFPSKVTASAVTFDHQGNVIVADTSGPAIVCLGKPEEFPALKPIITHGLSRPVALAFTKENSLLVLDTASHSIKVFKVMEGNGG
Kind of experiment: affinity purification with mass spectrometry; anti-c-myc immunoprecipitates from skeletal muscle of 4-month-old malin-myc/LKO mice (laforin knockout), compared with malin-myc and LKO mice, LC-MS/MS.

For experiment [2], the target named is T1, malin-myc (mouse malin with a C-terminal 2x c-myc tag, expressed from the endogenous gene) (mouse). Kind of experiment: condition: only in laforin knockout mice (malin-myc/LKO); affinity purification with mass spectrometry; anti-c-myc immunoprecipitates from skeletal muscle of 4-month-old malin-myc/LKO mice (laforin knockout), compared with malin-myc and LKO mice, LC-MS/MS.

Experiment [3] shares this target. Kind of experiment: affinity purification with mass spectrometry; anti-c-myc immunoprecipitates from the low-speed supernatant of skeletal muscle of 4-month-old malin-myc mice, WT (or LKO, LCS) mice as control, digested on beads, LC-MS/MS; also with α-amylase during the IP.
For experiment [4] the target is unchanged. Kind of experiment: affinity purification with mass spectrometry; anti-c-myc immunoprecipitates from the low-speed supernatant of brain of malin-myc mice, WT mice as control, LC-MS/MS.
For experiment [5] the target is unchanged. Kind of experiment: affinity purification with mass spectrometry; anti-c-myc immunoprecipitates from skeletal muscle of 4-month-old malin-myc/LCS mice (laforin C265S in the genome), LCS mice as control, LC-MS/MS.

For the molecule “glycogen debranching enzyme (AGL) (from UniProt F8VPN4 1-1532)”, the results for the binding entry in experiment [1] and in experiment [2] were “binds weakly” and “no binding”, respectively.

B1: glycogenin (GYG1) (enzyme, UniProt Q9R062 1-333)
chain: MTDQAFVTLTTNDAYAKGALVLGSSLKQHRTTRRMVVLTSPQVSDSMRKVLETVFDDVIMVDVLDSGDSAHLTLMKRPELGITLTKLHCWSLTQYSKCVFMDADTLVLSNIDDLFEREELSAAPDPGWPDCFNSGVFVYQPSIETYNQLLHLASEQGSFDGGDQGLLNTYFSGWATTDITKHLPFVYNLSSISIYSYLPAFKAFGKNAKVVHFLGRTKPWNYTYNPQTKSVNCDSQDPTVSHPEFLNLWWDTFTTNVLPLLQHHGLVKDASSYLMMEHVSGALSDLSFGEAPAAPQPSMSSEERKERWEQGQADYMGADSFDNIKRKLDTYLQ
In the case of B1, the results for the binding entry in experiment [1] and in experiment [2] were “binds weakly” and “no binding”, respectively.

B2: glycogen branching enzyme (GBE) (enzyme, UniProt Q9D6Y9 1-702)
chain: MAAPAAPAAGETGPDARLEAALADVPELARLLEIDPYLKPFAADFQRRYKKFSQVLHDIGENEGGIDKFSRGYESFGIHRCSDGGIYCKEWAPGAEGVFLTGEFSGWNPFSHPYKKLEYGKWELYIPPKQNKSPLIPHGSKLKVVITSKSGEILYRISPWAKYVVRENNNVNYDWIHWAPEDPYKFKHSRPKKPRSLRIYESHVGISSHEGKIASYKHFTSNVLPRIKDLGYNCIQLMAIMEHAYYASFGYQITSFFAASSRYGTPEELKELVDTAHSMGIVVLLDVVHSHASKNSEDGLNMFDGTDSCYFHSGPRGTHDLWDSRLFIYSSWEVLRFLLSNIRWWLEEYCFDGFRFDGVTSMLYHHHGMGQGFSGDYNEYFGLQVDEDALIYLMLANHLAHTLYPDSITIAEDVSGMPALCSPTSQGGGGFDYRLAMAIPDKWIQLLKEFKDEDWNMGNIVYTLTNRRYLEKCVAYAESHDQALVGDKTLAFWLMDAEMYTNMSVLAPFTPVIDRGIQLHKMIRLITHGLGGEGYLNFMGNEFGHPEWLDFPRKGNNESYHYARRQFNLTDDDLLRYKFLNNFDRDMNRLEERCGWLSAPQAYVSEKHEANKTITFERAGLLFIFNFHPSKSYTDYRVGTATPGKFKIVLDSDAAEYGGHQRLDHNTNYFAEAFEHNGRPYSLLVYIPSRVALILQNVDLQN
Turning to B2, the binding entry in experiment [3] was “no binding”.

B3: laforin (enzyme, UniProt Q9WUA5 1-330)
chain: MLFRFGVVVPPAVAGARQELLLAGSRPELGRWEPHGAVRLRPAGTAAGAAALALQEPGLWLAEVELEAYEEAGGAEPGRVDTFWYKFLQREPGGELHWEGNGPHHDRCCTYNEDNLVDGVYCLPVGHWIEATGHTNEMKHTTDFYFNIAGHQAMHYSRILPNIWLGSCPRQLEHVTIKLKHELGVTAVMNFQTEWDIIQNSSGCNRYPEPMTPDTMMKLYKEEGLSYIWMPTPDMSTEGRVQMLPQAVCLLHALLENGHTVYVHCNAGVGRSTAAVCGWLHYVIGWNLRKVQYFIMAKRPAVYIDEDALAQAQQDFSQKFGKVHSSICAL
Turning to B3, the binding entry in experiment [4] is “binds”.

B4: LaforinC265S (catalytically inactive laforin, expressed from the endogenous gene) (enzyme, UniProt Q9WUA5 1-330)
chain: MLFRFGVVVPPAVAGARQELLLAGSRPELGRWEPHGAVRLRPAGTAAGAAALALQEPGLWLAEVELEAYEEAGGAEPGRVDTFWYKFLQREPGGELHWEGNGPHHDRCCTYNEDNLVDGVYCLPVGHWIEATGHTNEMKHTTDFYFNIAGHQAMHYSRILPNIWLGSCPRQLEHVTIKLKHELGVTAVMNFQTEWDIIQNSSGCNRYPEPMTPDTMMKLYKEEGLSYIWMPTPDMSTEGRVQMLPQAVCLLHALLENGHTVYVHSNAGVGRSTAAVCGWLHYVIGWNLRKVQYFIMAKRPAVYIDEDALAQAQQDFSQKFGKVHSSICAL
For B4, the binding result in experiment [5] is listed as “binds”.

B5: Ppp1r3a (protein, UniProt Q99MR9 1-1089)
chain: MEPAEEPGQISKDNFLEVPNLSDSVCEDEEVKATFKPGFSPQPSRRGSGSSEDMYLDTPTSASRRVSFADSLGFSLVSVKEFDCWELPSVSTDFDLSGDVFHTDEYVLSPLFDLPSSKEKLMEQLQVQKAVLESAEHLPGSSMKGIIRVLNISFEKLVYVRMSLDDWQTHYDILAEYVPNSCDGETDQFSFKISLVPPYQKEGGKVEFCIRYETSAGTFWSNNNGTNYILVCQKKRKEPEPVKPLEEAPSRQIKGCLKVKSRSKEEPLLAPEENKFETLKFTESYIPTIICSHEDKDDLGANHPNVDDINKKHDEHNGKELDLMINQRLITSQDEKNTFATDTVNFTNKAEGSEKKQAYHEINTDLFMGPLSPSLSAESSLKRDFYHSRSSSPGNEYGHPHSEEIISDMGEKGPSLGDTSSDELMQLELCSKEDLDDNANPANGSGRVCSSFDQRMACGLKNNEAGIKKTGIQDYKYSHGDSTKLEESNASSRDDYAKVDNKKEKQTCLGVNENPSKNFQSVFQTQEGHMGYPKISTEGDKANNQDLTSLLSKDITANTWAVTVDPCPSTNAKRSWREVGSGSNLEPGTSDLSSPRNFSPLTDDHLFQADRENSDSSNPENQNMNTRHRKKWNVLETQSETSETESDIAKHTKEQAEYKDMWEKTDNSRNLKATPTEHLFTCRETECYGLSSLADHGITEKAQAVTAYIIKTTLESTPESASARGKAIIAKLPQETAGNDRPIEVKETAFDPHEGRKDDSHYSLCHGDTAGVIHDNDFERESHLDICNLRVDEMKKEKTTSTCFPQKTYDKEKHGIGSVTSIDEPSQVITGNQKATSKLDLHLGVLPTDRAIFQANADLELLQELSRRTDFNAVPSAFNSDTASASRDSSQVYRHCSKKSVPSYGEEKAVTNTTLQSIPTKSEYNWHPESEVLGHAMSKPEDVFKSSEIMKSGSGGERGGGPILQQKEGSLENSQGPMFFTNEPLENLDEASSENEGLMHSGQSQCYLGDKGLVSSASATVSTQELEAQGRESLLSISTNSKIPYFLLFLIFLATVYYYDLMIGLAFYLFSLYWLYWEGGRQRESVKKK
On to B5, for which the binding entry in experiment [1] was “binds weakly”; in experiment [2], “no binding”.

B6: protein targeting to glycogen (PTG) (protein, UniProt Q7TMB3 1-317)
chain: MSCTRMIHVLDPRPLTSSVMPVDMAMRICLAHSPPLKSFLGPYNGFQRRNFVNKLKPLKPCLSVKQEAKSQSEWKSPHNQAKKRVVFADSKGLSLTAIHVFSDLPEEPAWDLQFDLLDLNDISSSLKLHEEKNLVFDFPQPSTDYLSFRDRFQKNFVCLENCSLQDRTVTGTVKVKNVSFEKKVQVRITFDTWKTYTDVDCVYMKNVYSSSDSDTFSFAIDLPRVIPTEEKIEFCISYHANGRIFWDNNEGQNYRIVHVQWKPDGVQTQVAPKDCAFQQGPPKTEIEPTVFGSPRLASGLFPEWQSWGRVENLTSYR
Turning to B6, the binding result in experiment [3] is on record as “no binding”.
